Data as given in patent US20170173002A1, “Compositions and Methods for Treating an Infection” (CMPD LICENSING, LLC, priority 2015, published 2017).
For at least one compound, name, drawing or mass did not settle the structure.

Columns and labels:
Clostridium difficile = assay: Expected efficacy of antibiotic agents; conditions: expected efficacy against Clostridium difficile
Clostridium perfringens = conditions: expected efficacy against Clostridium perfringens
Brucella species = conditions: expected efficacy against Brucella species
Shigella sonnei = assay: Expected efficacy of antibiotic agents; conditions: expected efficacy against Shigella sonnei
Legionella pneumophila = conditions: expected efficacy against Legionella pneumophila
Chlamydia psittaci = conditions: expected efficacy against Chlamydia psittaci
Rickettsiae = conditions: expected efficacy against Rickettsiae
Shigella boydii = assay: Expected efficacy of antibiotic agents; conditions: expected efficacy against Shigella boydii
Shigella flexneri = assay: Expected efficacy of antibiotic agents; conditions: expected efficacy against Shigella flexneri
Francisella tularensis = conditions: expected efficacy against Francisella tularensis
Yersinia pestis = conditions: expected efficacy against Yersinia pestis

Structure (SMILES): CCC[C@@H]1C[C@@H](C(=O)N[C@@H]([C@H]2O[C@H](SC)[C@H](O)[C@@H](O)[C@H]2O)[C@H](C)Cl)N(C)C1 [Clindamycin, clindamycin]
- Efficacy (Clostridium difficile): ±
- Efficacy (Clostridium perfringens): yes - partial

Structure (SMILES): C[C@H]1c2cccc(O)c2C(=O)C2=C(O)[C@]3(O)C(=O)C(C(N)=O)=C(O)[C@@H](N(C)C)[C@@H]3[C@@H](O)[C@@H]21 [Doxycycline, doxycycline]
- Efficacy (Brucella species): yes
- Efficacy (Shigella sonnei): ±
- Efficacy (Legionella pneumophila): yes
- Efficacy (Clostridium difficile): ±
- Efficacy (Chlamydia psittaci): yes
- Efficacy (Rickettsiae): yes
- Efficacy (Shigella boydii): ±
- Efficacy (Shigella flexneri): ±
- Efficacy (Francisella tularensis): yes
- Efficacy (Yersinia pestis): yes

Structure (SMILES): C[C@H]1COc2c(N3CCN(C)CC3)c(F)cc3c(=O)c(C(=O)O)cn1c23 [Levofloxacin, levofloxacin]
- Efficacy (Brucella species): ±
- Efficacy (Shigella sonnei): yes
- Efficacy (Legionella pneumophila): yes
- Efficacy (Clostridium difficile): no
- Efficacy (Rickettsiae): yes
- Efficacy (Shigella boydii): yes
- Efficacy (Shigella flexneri): yes
- Efficacy (Francisella tularensis): yes
- Efficacy (Yersinia pestis): yes
- Efficacy (Clostridium perfringens): yes
